# In PMC4478713:
# Protein sequences, listed by entry. Tags and fused reporters are not part of them. Lines headed by an entry give the natural chain unless they say otherwise; changes in a name come on top.
# UniProt P04218: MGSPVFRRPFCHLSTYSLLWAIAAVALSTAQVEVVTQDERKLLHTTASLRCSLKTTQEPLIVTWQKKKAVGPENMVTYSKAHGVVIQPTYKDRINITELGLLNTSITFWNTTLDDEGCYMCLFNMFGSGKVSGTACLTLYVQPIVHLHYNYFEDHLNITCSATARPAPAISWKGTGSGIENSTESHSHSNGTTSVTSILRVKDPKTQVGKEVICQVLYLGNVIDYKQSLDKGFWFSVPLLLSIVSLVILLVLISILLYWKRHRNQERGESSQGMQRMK
# UniProt Q9ES58: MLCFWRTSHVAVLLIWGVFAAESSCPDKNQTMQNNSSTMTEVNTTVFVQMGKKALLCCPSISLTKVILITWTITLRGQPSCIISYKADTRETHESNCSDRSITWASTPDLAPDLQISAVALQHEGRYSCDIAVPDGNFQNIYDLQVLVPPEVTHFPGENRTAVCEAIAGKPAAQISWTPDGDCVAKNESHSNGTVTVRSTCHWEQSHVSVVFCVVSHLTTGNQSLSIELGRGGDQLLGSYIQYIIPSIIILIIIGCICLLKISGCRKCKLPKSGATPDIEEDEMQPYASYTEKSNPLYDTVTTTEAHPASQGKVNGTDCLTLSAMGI
# Target: rat Cd200 (rat) (UniProt P04218)
# Experiment: AVEXIS; bait and prey pre-incubated with a range of EDTA concentrations (maximum 10 mM by the methods, approximately 30 mM by the results) for one hour before AVEXIS
substance,measurement,value
rat Cd200R (from UniProt Q9ES58),binding,binds

# These are yes or no findings as the source states them, for the method shown. Binding calls can cover weak binding; strength is not graded here.
